Reference: article PMC9355564, “A network of cytosolic (co)chaperones promotes the biogenesis of mitochondrial signal-anchored outer membrane proteins” (eLife, 2022)
No constants are given. Whether binding was seen depends on the method and setting. Binding seen in cells or lysates may run through a third protein. These calls come from enrichment with a bait or labelling near it, and not all partners need be listed. Values belong to the molecule of their own block, whether it stands above or below them.

Chains of the proteins cited; added tags and fusions are not shown. Residues count along the entry.
UniProt P22202: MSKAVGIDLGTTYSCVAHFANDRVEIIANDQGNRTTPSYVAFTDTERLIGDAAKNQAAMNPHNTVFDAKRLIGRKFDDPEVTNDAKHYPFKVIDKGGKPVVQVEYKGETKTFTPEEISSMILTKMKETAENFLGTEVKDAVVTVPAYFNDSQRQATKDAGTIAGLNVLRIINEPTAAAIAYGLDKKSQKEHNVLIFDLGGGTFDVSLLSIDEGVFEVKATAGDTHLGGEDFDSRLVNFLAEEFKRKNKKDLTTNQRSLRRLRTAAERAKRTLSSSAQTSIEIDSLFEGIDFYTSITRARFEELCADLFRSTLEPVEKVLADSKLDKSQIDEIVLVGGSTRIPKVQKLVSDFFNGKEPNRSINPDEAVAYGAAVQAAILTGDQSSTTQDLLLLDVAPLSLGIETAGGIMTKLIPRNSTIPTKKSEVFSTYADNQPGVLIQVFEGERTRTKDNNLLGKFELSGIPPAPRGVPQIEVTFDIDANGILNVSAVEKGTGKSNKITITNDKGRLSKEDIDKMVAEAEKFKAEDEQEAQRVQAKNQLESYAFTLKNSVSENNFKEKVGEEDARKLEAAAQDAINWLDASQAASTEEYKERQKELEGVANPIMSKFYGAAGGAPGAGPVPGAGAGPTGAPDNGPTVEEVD
UniProt P0CS90, residues 24-654: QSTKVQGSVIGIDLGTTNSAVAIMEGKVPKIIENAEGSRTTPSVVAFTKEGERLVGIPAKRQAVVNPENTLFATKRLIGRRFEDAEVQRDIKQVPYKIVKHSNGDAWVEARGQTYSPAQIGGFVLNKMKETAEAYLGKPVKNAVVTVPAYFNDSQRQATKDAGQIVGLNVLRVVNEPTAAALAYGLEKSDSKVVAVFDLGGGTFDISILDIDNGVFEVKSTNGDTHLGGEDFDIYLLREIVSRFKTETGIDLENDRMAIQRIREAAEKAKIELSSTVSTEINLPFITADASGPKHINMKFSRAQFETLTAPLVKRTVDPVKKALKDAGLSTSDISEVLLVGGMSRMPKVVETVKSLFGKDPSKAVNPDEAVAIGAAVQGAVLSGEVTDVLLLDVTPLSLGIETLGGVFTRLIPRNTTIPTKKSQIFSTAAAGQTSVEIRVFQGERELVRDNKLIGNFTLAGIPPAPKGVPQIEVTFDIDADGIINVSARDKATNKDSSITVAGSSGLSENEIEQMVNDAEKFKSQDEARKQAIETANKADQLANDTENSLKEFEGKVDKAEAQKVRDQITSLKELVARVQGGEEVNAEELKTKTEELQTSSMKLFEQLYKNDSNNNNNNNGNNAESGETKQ

Experiments:
[1] = molecular target: T1, Msp1-3HA (full length) (S. cerevisiae) (UniProt P28737); experiment: affinity purification with mass spectrometry; eluates of anti-HA pull-downs of Msp1 or Mcr1 translated in yeast extract, against a mock pull-down without synthesized protein; nanoLC-MS/MS
T1 sequence: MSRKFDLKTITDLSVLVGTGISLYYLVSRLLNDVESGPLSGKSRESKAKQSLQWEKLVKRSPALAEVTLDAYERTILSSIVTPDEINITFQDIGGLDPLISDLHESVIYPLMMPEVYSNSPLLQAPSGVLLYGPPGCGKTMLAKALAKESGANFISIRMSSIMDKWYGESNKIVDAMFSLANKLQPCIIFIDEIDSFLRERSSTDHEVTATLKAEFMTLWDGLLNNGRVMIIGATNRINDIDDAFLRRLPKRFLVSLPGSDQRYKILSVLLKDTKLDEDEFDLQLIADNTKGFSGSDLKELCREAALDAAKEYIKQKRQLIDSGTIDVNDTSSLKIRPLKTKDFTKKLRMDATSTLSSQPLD

[2] = molecular target: T2, Mcr1-3HA (full length) (S. cerevisiae) (UniProt P36060); experiment: as above
T2 sequence: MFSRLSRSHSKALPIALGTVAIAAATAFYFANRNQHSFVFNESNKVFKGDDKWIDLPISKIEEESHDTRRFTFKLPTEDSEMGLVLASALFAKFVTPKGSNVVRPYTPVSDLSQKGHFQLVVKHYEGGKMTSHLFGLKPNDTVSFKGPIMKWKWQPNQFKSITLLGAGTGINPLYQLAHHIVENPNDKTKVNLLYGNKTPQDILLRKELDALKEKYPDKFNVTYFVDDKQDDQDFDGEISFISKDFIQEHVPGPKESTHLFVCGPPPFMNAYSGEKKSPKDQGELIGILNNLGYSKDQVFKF

B1: Snl1 (protein, UniProt P40548 1-159)
chain: MSHNAMEHWKSKLSKTSTSTYVLLAVIAVVFLVTIRRPNGSKGKSSKKRASKKNKKGKNQFEKAPVPLTLEEQIDNVSLRYGNELEGRSKDLINRFDVEDEKDIYERNYCNEMLLKLLIELDSIDLINVDESLRRPLKEKRKGVIKEIQAMLKSLDSLK
binding [1]: binds | binding [2]: binds

B2: Lhs1 (protein, UniProt P36016 21-881)
chain: AVLGVDYGQQNIKAIVVSPQAPLELVLTPEAKRKEISGLSIKRLPGYGKDDPNGIERIYGSAVGSLATRFPQNTLLHLKPLLGKSLEDETTVTLYSKQHPGLEMVSTNRSTIAFLVDNVEYPLEELVAMNVQEIANRANSLLKDRDARTEDFVNKMSFTIPDFFDQHQRKALLDASSITTGIEETYLVSEGMSVAVNFVLKQRQFPPGEQQHYIVYDMGSGSIKASMFSILQPEDTTQPVTIEFEGYGYNPHLGGAKFTMDIGSLIENKFLETHPAIRTDELHANPKALAKINQAAEKAKLILSANSEASINIESLINDIDFRTSITRQEFEEFIADSLLDIVKPINDAVTKQFGGYGTNLPEINGVILAGGSSRIPIVQDQLIKLVSEEKVLRNVNADESAVNGVVMRGIKLSNSFKTKPLNVVDRSVNTYSFKLSNESELYDVFTRGSAYPNKTSILTNTTDSIPNNFTIDLFENGKLFETITVNSGAIKNSYSSDKCSSGVAYNITFDLSSDRLFSIQEVNCICQSENDIGNSKQIKNKGSRLAFTSEDVEIKRLSPSERSRLHEHIKLLDKQDKERFQFQENLNVLESNLYDARNLLMDDEVMQNGPKSQVEELSEMVKVYLDWLEDASFDTDPEDIVSRIREIGILKKKIELYMDSAKEPLNSQQFKGMLEEGHKLLQAIETHKNTVEEFLSQFETEFADTIDNVREEFKKIKQPAYVSKALSTWEETLTSFKNSISEIEKFLAKNLFGEDLREHLFEIKLQFDMYRTKLEEKLRLIKSGDESRLNEIKKLHLRNFRLQKRKEEKLKRKLEQEKSRNNNETESTVINSADDKTTIVNDKTTESNPSSEEDILHDEL
binding [1]: binds | binding [2]: binds

Further lines, results first:

binding [1]: binds | binding [2]: binds
Molecule: Ssa4 (from UniProt P22202 1-642)

binding [1]: binds | binding [2]: binds
Molecule: Ssc1 (from UniProt P0CS90 24-654)

binding [1]: binds | binding [2]: binds
B3: Sse1 (protein, UniProt P32589 1-693)
chain: MSTPFGLDLGNNNSVLAVARNRGIDIVVNEVSNRSTPSVVGFGPKNRYLGETGKNKQTSNIKNTVANLKRIIGLDYHHPDFEQESKHFTSKLVELDDKKTGAEVRFAGEKHVFSATQLAAMFIDKVKDTVKQDTKANITDVCIAVPPWYTEEQRYNIADAARIAGLNPVRIVNDVTAAGVSYGIFKTDLPEGEEKPRIVAFVDIGHSSYTCSIMAFKKGQLKVLGTACDKHFGGRDFDLAITEHFADEFKTKYKIDIRENPKAYNRILTAAEKLKKVLSANTNAPFSVESVMNDVDVSSQLSREELEELVKPLLERVTEPVTKALAQAKLSAEEVDFVEIIGGTTRIPTLKQSISEAFGKPLSTTLNQDEAIAKGAAFICAIHSPTLRVRPFKFEDIHPYSVSYSWDKQVEDEDHMEVFPAGSSFPSTKLITLNRTGDFSMAASYTDITQLPPNTPEQIANWEITGVQLPEGQDSVPVKLKLRCDPSGLHTIEEAYTIEDIEVEEPIPLPEDAPEDAEQEFKKVTKTVKKDDLTIVAHTFGLDAKKLNELIEKENEMLAQDKLVAETEDRKNTLEEYIYTLRGKLEEEYAPFASDAEKTKLQGMLNKAEEWLYDEGFDSIKAKYIAKYEELASLGNIIRGRYLAKEEEKKQAIRSKQEASQMAAMAEKLAAQRKAEAEKKEEKKDTEGDVDMD

binding [1]: binds | binding [2]: binds
B4: Zuo1 (protein, UniProt P32527 1-433)
chain: MFSLPTLTSDITVEVNSSATKTPFVRRPVEPVGKFFLQHAQRTLRNHTWSEFERIEAEKNVKTVDESNVDPDELLFDTELADEDLLTHDARDWKTADLYAAMGLSKLRFRATESQIIKAHRKQVVKYHPDKQSAAGGSLDQDGFFKIIQKAFETLTDSNKRAQYDSCDFVADVPPPKKGTDYDFYEAWGPVFEAEARFSKKTPIPSLGNKDSSKKEVEQFYAFWHRFDSWRTFEFLDEDVPDDSSNRDHKRYIERKNKAARDKKKTADNARLVKLVERAVSEDPRIKMFKEEEKKEKERRKWEREAGARAEAEAKAKAEAEAKAKAESEAKANASAKADKKKAKEAAKAAKKKNKRAIRNSAKEADYFGDADKATTIDEQVGLIVDSLNDEELVSTADKIKANAAGAKEVLKESAKTIVDSGKLPSSLLSYFV
